{"source": "patent US4267189A", "about": "“Method of use and composition for 1,3-dihydro-3-(2-hydroxy-2-methylpropyl)-2H-isoindol-1-one” (American Home Products Corporation, priority 1979, dated 1981)", "tested_on": "Gastric Acid Secretion", "assay": "Basal gastric acid secretion in the Shay (pylorus-ligated) rat", "assay_type": "in vivo, rat (female Sprague Dawley)", "conditions": "for Gastric Acid Output: mean ± S.E.; for ED50: Rattus norvegicus, gastric acid secretion", "protocol": "Female Sprague Dawley rats (Canadian Breeding Laboratories; 160-180 g) were fasted for 48 hours before pyloric ligation. After the first 24 hours of fasting the animals were given access to 8% sucrose in 0.2% sodium chloride for 8 hours. Water was permitted ad libitum except during the 8 hour access to sucrose and after the drug treatment. The compounds were suspended in water with the aid of one drop of Tween 80 per 7 ml for oral or intraperitoneal administration. The pylorus was ligated under ether anesthesia and the sutured incision was covered with flexible collodion to prevent the animals from ingesting adhering blood. The stomachs were lavaged with 0.9% sodium chloride until the return solution was clear. Four hours after pyloric ligation, the animals were killed with diethyl ether and the gastric contents were collected in centrifuge tubes. The amount of acid in the centrifuged gastric juice was determined by titration against 0.1 N sodium hydroxide in a direct reading pH meter of pH 7.0.\nStudent's t test was used in the evaluation of the data. The ED50 's were obtained graphically by plotting the percent inhibition of gastric acid secretion versus the logarithm of the dose of the compound.", "data": [{"smiles": "CN1[C@@H]2CC[C@H]1C[C@@H](OC(=O)C(CO)c1ccccc1)C2", "note": "(some centres unmarked) [Atropine, reference compound]", "values": [{"measurement": "Gastric Acid Output (% Inhibition)", "setting": "0.25 mg/kg i.p.", "result": 49, "unit": "% Inhibition"}, {"measurement": "Gastric Acid Output", "setting": "0.25 mg/kg i.p.", "result": "278 ± 38", "unit": "μEg/4 hr"}, {"measurement": "Gastric Acid Output (% Inhibition)", "setting": "0.5 mg/kg i.p.", "result": 50, "unit": "% Inhibition"}, {"measurement": "Gastric Acid Output", "setting": "0.5 mg/kg i.p.", "result": "270 ± 37", "unit": "μEg/4 hr"}, {"measurement": "Gastric Acid Output (% Inhibition)", "setting": "1 mg/kg i.p.", "result": 67, "unit": "% Inhibition"}, {"measurement": "Gastric Acid Output", "setting": "1 mg/kg i.p.", "result": "182 ± 48", "unit": "μEg/4 hr"}, {"measurement": "Gastric Acid Output (% Inhibition)", "setting": "2 mg/kg p.o.", "result": 0, "unit": "% Inhibition"}, {"measurement": "Gastric Acid Output", "setting": "2 mg/kg p.o.", "result": "436 ± 77", "unit": "μEq/4 hr"}, {"measurement": "Gastric Acid Output (% Inhibition)", "setting": "4 mg/kg p.o.", "result": 33, "unit": "% Inhibition"}, {"measurement": "Gastric Acid Output", "setting": "4 mg/kg p.o.", "result": "290 ± 60", "unit": "μEq/4 hr"}, {"measurement": "Gastric Acid Output (% Inhibition)", "setting": "8 mg/kg p.o.", "result": 57, "unit": "% Inhibition"}, {"measurement": "Gastric Acid Output", "setting": "8 mg/kg p.o.", "result": "186 ± 53", "unit": "μEq/4 hr"}, {"measurement": "ED50", "setting": "ip, intraperitoneal administration", "result": 0.5, "unit": "mg/kg"}, {"measurement": "ED50", "setting": "oral administration", "result": 7, "unit": "mg/kg"}]}]}
